Earlier results as cited in patent publication US7101912B2, “Carbidopa prodrugs and derivatives, and compositions and uses thereof” (XenoPort, Inc., priority 2002, dated 2006).
Like-named read-outs stand apart in the source and are kept apart here.

Details: patients

For `N[C@@H](Cc1ccc(O)c(O)c1)C(=O)O` [levodopa, L-3,4-dihydroxyphenylalanine], the “half-life of levodopa in plasma” value (administered alone) is given as “about 50 min” and the “half-life of levodopa in plasma” value (given with carbidopa) is given as 1 to 2 h.
